One sequence from patent publication US20020037514 can be followed below.

Chains of the proteins cited; added tags and fusions are not shown. Chains listed by the source or under a name are the forms on record and can include a tag or linker.
RARα-V5/RXRγ heterodimer (Homo sapiens), one chain, as listed by the source, chain 1 of 2: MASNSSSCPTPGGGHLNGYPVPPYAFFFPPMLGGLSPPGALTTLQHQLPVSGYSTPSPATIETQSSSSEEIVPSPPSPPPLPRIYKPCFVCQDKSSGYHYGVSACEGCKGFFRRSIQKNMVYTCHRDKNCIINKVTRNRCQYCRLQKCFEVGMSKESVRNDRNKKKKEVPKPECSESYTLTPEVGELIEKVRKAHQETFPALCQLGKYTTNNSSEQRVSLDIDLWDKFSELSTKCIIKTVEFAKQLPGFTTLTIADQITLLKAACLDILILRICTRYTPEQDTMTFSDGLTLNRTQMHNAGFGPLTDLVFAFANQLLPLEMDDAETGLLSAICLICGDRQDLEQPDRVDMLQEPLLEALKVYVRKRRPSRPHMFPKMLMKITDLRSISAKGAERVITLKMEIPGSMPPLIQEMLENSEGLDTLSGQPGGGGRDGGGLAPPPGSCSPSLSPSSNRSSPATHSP
RARα-V5/RXRγ heterodimer (Homo sapiens), one chain, as listed by the source, chain 2 of 2: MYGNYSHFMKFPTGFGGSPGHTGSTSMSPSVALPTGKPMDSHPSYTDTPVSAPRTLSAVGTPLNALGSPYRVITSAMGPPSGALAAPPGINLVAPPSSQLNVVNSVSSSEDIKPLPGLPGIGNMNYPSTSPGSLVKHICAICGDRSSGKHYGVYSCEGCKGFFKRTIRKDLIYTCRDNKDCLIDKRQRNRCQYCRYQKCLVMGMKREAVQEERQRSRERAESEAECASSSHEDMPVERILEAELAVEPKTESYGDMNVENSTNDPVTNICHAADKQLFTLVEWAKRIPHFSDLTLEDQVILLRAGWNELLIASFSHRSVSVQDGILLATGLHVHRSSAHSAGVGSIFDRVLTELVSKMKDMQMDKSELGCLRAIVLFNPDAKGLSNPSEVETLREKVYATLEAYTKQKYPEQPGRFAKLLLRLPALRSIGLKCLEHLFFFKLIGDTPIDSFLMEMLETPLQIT

Construct, isoform or probe ends are uncertain for at least one entry. At least one result comes from cells or an extract, where the contact may be indirect.

This data set concerns RARα-V5/RXRγ heterodimer (Homo sapiens). In words: binding assay. The note with it: co-IP ternary complex; ATRA-induced SRC-1 and ACTR recruitment; indirect; protein in a lysate after overexpression; protein details: RARα C-terminal V5, CV-1 lysate.

Consider “AGCTTTCAGGTCACCAGGAGGTCAGAA (double strand) [DR-5 RARE]”, for which the binding result is recorded as “binds”.
